Assay results taken from the supplement of paper PMC12067093, “Discovery and optimisation of a covalent ligand for TRIM25 and its application to targeted protein ubiquitination” (Chemical Science, 2025).
The list shows a part of the results.

By UniProt entry, the sequences of proteins in these tests, tags left out. Where a name states a change or a piece, a line headed by the entry shows the natural chain unless it says otherwise.
UniProt Q15831: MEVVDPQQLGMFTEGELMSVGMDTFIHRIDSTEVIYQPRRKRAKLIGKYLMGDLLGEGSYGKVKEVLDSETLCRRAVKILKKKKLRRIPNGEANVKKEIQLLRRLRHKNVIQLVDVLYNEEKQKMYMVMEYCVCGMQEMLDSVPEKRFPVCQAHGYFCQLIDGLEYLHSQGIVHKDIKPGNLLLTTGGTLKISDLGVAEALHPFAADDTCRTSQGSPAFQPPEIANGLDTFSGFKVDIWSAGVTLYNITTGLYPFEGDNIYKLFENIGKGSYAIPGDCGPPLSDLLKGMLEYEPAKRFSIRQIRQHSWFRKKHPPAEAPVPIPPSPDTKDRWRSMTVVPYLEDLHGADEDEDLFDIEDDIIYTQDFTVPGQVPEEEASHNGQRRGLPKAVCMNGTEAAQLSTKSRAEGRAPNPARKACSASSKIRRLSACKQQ
UniProt Q8TE77: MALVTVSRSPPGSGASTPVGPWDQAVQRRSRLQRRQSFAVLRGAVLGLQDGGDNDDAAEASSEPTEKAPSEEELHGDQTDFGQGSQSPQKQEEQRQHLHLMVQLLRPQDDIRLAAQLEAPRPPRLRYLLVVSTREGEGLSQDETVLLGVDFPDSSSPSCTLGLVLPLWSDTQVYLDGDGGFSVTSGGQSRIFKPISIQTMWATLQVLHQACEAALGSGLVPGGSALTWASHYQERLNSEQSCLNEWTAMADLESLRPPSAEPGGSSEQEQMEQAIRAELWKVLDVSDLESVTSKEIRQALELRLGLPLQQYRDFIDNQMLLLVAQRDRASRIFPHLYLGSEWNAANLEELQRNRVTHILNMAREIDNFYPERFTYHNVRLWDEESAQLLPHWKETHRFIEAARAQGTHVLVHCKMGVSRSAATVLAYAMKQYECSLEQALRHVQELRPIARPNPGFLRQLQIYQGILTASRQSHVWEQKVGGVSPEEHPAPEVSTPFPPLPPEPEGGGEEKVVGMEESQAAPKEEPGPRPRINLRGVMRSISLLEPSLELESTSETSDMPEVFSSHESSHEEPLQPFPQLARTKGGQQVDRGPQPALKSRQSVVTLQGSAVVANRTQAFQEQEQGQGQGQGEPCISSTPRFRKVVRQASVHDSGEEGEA
UniProt P05455: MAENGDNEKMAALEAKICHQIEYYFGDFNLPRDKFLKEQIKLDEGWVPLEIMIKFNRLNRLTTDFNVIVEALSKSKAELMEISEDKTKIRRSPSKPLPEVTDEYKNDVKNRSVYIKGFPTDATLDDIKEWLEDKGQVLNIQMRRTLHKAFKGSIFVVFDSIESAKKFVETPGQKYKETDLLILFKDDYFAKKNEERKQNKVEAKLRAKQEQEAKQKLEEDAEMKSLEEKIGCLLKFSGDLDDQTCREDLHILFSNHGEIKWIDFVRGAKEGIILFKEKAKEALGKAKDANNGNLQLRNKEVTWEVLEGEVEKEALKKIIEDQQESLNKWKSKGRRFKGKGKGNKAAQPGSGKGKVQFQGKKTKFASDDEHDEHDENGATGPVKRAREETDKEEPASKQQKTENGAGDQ
UniProt Q16629: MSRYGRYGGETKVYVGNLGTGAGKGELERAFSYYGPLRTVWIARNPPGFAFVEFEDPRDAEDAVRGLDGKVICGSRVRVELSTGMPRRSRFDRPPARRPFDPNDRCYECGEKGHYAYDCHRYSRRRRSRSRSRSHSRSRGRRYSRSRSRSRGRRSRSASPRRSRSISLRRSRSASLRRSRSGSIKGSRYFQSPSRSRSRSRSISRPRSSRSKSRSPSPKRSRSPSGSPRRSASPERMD
UniProt Q9UQ35: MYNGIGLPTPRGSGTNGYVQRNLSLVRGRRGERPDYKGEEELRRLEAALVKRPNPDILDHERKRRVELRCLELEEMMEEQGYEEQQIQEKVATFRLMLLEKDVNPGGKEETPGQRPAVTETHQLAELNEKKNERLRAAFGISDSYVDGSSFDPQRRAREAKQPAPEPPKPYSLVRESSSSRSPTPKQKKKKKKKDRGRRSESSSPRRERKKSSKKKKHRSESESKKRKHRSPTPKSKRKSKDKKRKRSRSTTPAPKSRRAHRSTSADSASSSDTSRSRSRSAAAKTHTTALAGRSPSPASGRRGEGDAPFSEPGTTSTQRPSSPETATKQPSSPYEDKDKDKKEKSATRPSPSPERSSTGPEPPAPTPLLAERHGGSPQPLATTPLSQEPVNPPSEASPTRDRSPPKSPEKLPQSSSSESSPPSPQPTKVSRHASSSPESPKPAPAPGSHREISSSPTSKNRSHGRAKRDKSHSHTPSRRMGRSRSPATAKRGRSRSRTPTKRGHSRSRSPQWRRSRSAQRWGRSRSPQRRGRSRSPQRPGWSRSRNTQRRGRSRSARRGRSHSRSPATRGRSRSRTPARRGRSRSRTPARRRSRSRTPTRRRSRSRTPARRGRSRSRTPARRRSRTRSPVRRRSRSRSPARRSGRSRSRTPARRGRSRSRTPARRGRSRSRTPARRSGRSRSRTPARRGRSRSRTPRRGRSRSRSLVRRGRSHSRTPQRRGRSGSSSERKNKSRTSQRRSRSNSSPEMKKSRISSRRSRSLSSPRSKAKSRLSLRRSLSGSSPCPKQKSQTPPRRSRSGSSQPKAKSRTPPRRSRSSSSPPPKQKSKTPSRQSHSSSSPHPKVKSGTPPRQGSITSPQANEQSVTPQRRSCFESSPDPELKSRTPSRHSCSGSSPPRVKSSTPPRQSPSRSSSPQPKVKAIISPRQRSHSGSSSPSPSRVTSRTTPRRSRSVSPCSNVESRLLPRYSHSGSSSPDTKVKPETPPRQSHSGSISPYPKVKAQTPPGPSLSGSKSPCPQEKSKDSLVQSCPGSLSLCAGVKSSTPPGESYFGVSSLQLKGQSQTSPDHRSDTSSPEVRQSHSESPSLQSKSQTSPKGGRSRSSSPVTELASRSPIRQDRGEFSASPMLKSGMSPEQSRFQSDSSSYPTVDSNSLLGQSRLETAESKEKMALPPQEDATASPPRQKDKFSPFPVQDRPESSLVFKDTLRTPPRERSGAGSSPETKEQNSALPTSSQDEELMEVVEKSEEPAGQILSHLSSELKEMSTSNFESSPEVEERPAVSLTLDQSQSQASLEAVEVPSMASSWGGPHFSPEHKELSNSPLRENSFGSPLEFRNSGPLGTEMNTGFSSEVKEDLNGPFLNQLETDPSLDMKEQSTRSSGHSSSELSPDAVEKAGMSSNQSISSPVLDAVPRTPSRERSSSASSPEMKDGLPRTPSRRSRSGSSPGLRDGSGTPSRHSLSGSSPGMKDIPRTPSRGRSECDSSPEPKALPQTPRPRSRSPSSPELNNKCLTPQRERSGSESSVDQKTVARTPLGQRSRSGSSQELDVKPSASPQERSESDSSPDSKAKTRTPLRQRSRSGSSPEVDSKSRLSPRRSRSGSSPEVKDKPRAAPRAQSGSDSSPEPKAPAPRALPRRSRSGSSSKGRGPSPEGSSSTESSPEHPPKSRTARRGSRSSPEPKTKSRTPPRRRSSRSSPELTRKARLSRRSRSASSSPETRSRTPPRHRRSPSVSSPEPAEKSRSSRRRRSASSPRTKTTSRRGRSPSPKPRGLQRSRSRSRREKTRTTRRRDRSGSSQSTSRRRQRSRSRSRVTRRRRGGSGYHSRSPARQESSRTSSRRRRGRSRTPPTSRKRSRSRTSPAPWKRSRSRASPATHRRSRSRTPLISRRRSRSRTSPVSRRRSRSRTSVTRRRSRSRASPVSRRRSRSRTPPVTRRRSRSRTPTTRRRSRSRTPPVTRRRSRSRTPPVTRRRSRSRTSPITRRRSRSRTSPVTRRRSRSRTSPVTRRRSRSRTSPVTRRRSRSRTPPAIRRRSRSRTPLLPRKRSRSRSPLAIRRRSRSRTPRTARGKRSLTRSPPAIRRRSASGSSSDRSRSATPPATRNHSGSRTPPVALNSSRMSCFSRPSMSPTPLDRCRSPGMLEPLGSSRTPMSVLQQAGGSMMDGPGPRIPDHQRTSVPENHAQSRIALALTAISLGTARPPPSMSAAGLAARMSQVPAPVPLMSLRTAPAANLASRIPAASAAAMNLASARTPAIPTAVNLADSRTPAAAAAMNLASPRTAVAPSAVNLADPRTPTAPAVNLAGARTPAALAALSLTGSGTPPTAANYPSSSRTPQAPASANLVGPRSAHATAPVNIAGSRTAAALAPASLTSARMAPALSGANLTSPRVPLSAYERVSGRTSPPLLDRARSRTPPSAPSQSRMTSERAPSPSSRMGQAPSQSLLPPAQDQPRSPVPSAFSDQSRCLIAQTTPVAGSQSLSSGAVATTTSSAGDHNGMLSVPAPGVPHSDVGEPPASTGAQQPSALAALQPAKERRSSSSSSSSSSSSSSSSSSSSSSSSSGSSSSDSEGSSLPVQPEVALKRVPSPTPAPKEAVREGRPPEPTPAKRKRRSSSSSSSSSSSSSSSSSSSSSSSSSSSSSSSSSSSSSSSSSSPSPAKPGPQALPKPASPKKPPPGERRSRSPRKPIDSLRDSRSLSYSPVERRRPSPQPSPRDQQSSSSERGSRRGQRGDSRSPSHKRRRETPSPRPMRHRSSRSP
UniProt Q5VSL9: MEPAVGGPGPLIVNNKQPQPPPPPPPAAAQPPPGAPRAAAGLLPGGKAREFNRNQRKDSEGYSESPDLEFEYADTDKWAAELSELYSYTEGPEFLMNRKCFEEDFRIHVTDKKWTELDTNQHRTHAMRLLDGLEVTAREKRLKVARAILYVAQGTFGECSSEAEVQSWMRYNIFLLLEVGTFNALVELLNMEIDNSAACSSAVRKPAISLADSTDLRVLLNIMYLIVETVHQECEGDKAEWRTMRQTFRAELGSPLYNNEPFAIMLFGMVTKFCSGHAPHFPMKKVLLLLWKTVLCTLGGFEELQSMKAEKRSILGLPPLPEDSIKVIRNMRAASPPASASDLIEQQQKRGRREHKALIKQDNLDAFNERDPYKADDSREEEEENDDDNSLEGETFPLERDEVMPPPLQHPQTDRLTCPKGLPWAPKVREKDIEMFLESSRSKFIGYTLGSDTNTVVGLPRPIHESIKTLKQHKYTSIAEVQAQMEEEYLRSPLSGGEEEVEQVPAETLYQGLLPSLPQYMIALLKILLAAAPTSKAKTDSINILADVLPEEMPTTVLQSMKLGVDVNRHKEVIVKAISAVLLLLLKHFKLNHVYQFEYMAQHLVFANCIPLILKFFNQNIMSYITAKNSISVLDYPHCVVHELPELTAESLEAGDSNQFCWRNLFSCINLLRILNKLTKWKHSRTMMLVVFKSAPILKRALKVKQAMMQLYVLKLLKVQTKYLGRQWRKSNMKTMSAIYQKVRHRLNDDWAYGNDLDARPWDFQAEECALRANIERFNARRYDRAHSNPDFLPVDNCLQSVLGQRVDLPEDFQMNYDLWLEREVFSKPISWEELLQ
UniProt Q07955, whole entry, looked up: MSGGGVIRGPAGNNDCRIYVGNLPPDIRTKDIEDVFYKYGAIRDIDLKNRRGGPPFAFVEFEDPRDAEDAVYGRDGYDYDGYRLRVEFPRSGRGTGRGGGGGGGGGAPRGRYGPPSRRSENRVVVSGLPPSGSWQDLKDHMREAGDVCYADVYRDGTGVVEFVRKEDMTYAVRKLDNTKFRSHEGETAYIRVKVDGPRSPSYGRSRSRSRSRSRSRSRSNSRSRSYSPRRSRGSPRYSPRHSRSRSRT
UniProt Q9BXP5: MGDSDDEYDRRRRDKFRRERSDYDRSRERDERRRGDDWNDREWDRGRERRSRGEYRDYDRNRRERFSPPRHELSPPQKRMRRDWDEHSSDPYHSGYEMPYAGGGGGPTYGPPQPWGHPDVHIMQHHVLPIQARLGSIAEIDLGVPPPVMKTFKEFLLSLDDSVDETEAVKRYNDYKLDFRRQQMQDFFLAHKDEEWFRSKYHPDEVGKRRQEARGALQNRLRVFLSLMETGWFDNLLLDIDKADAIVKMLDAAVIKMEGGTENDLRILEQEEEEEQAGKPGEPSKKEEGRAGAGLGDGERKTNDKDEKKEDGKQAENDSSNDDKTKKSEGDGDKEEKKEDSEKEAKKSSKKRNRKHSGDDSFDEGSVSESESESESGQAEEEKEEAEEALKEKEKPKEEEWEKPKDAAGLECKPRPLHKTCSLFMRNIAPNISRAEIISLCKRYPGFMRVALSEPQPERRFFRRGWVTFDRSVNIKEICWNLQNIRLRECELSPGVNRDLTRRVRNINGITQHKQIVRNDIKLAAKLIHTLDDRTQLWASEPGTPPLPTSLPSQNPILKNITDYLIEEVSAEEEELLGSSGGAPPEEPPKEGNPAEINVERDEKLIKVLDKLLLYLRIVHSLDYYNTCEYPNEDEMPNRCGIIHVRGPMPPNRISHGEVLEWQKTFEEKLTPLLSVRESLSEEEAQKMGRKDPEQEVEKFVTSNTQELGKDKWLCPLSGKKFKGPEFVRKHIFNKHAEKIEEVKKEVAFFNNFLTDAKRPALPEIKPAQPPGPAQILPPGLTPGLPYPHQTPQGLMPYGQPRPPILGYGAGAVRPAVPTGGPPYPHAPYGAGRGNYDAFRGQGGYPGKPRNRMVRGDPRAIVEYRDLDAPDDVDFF

Compound: Cc1cc(ccc1-c1ccccc1)C(=O)N1CCCN(CC1)C(=O)CCl [compound 10]
Test: probe-labelled cysteine peptide fold change vs DMSO (competition) (log2 fold change); higher = less target engagement (more negative = stronger competition)
Conditions: THP-1, incubation time: 4 h
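Note: competitive profiling in live THP-1 cells: cysteine peptides tagged with an iodoacetamide desthiobiotin (IA-DTB) probe, intensity after compound treatment relative to DMSO-treated cells.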

Row | Target | probe-labelled cysteine peptide fold change (10 µM) | probe-labelled cysteine peptide fold change (50 µM)
1 | STIM2_Q9P246_313_EGAECELSR (UniProt Q9P246) | -0.223 | -0.513
2 | STOM_P27105_87_GPGLFFILPCTDSFIK (UniProt P27105) | 0.114 | 0.454
3 | SYAP1_Q96A49_283_TQEDEEEISTSPGVSEFVSDAFDACNLNQEDLRK (UniProt Q96A49) | 0.273 | 0.338
4 | SSSCA1_O60232_125_EHQLASASELPLGSRPAPQPPVPRPEHCEGAAAGLK (UniProt O60232) | 0.00536 | -0.46
5 | ST13_P50502_209_LLGHWEEAAHDLALACKLDYDEDASAMLK (UniProt P50502) | -0.319 | -1.1
6 | SWAP70_Q9UH65_261_GDILLDENCCVESLPDK (UniProt Q9UH65) | 0.0948 | 0.239
7 | SUPT5H_O00267_740_VELHSTCQTISVDR (UniProt O00267) | -0.0717 | -0.0519
8 | STK11_Q15831_418_ACSASSK (UniProt Q15831) | -0.73 | -1.42
9 | SSH3_Q8TE77_434_QYECSLEQALR (UniProt Q8TE77) | -0.058 | -0.0996
10 | SSB_P05455_18_ICHQIEYYFGDFNLPR (UniProt P05455) | 0.0242 | 0.122
11 | STK4_Q13043_80_EISIMQQCDSPHVVK (UniProt Q13043) | -0.0952 | -0.122
12 | SRSF7_Q16629_73_VICGSR (UniProt Q16629) | -0.158 | -0.51
13 | STK19_P49842_354_LGLTYHVHDLIGAQLVDCISTTSGTLLR (UniProt P49842) | 0.111 | 0.203
14 | STK10_O94804_873_DMLAQCESNMSELQQLQNEK (UniProt O94804) | -0.178 | -0.0686
15 | STAG1_Q8WVM7_636_HVESDVLEACSK (UniProt Q8WVM7) | 0.218 | 0.335
16 | SSB_P05455_245_FSGDLDDQTCR (UniProt P05455) | 0.0779 | 0.184
17 | STEAP3_Q658P3_168_QVPICGDQPEAK (UniProt Q658P3) | -0.39 | -0.0131
18 | SRRM2_Q9UQ35_1016_SPCPQEK (UniProt Q9UQ35) | -0.183 | -0.221
19 | SUPT5H_O00267_429_EHNFQPGDNVEVCEGELINLQGK (UniProt O00267) | -0.204 | -0.0713

Looked up above.
For probe-labelled cysteine peptide fold change (10 µM), STK11_Q15831_418_ACSASSK (UniProt Q15831) has -0.73
For probe-labelled cysteine peptide fold change (50 µM), SSSCA1_O60232_125_EHQLASASELPLGSRPAPQPPVPRPEHCEGAAAGLK (UniProt O60232) has -0.46

Continuation.

Row | Target | probe-labelled cysteine peptide fold change (10 µM) | probe-labelled cysteine peptide fold change (50 µM)
20 | SYK_P43405_101_THASPADLCHYHSQESDGLVCLLK (UniProt P43405) | 0.197 | -0.0862
21 | SSBP4_Q9BWG4_81_EACEHSGEAK (UniProt Q9BWG4) | -0.186 | -0.777
22 | STRIP1_Q5VSL9_769_LNDDWAYGNDLDARPWDFQAEECALR (UniProt Q5VSL9) | -0.0806 | 0.0938
23 | STRIP1_Q5VSL9_100_CFEEDFR (UniProt Q5VSL9) | -0.0939 | -0.0406
24 | SUPT6H_Q7KZ85_1465_EKPTFIPYFICACK (UniProt Q7KZ85) | -0.0348 | -0.0178
25 | SRSF1_Q07955_148_EAGDVCYADVYR (UniProt Q07955) | 0.222 | -0.255
26 | STK11_Q15831_210_ISDLGVAEALHPFAADDTCR (UniProt Q15831) | -0.252 | -0.136
27 | SUPT6H_Q7KZ85_1281_FSADLTCR (UniProt Q7KZ85) | -0.129 | -0.0215
28 | SRRT_Q9BXP5_490_LRECELSPGVNR (UniProt Q9BXP5) | -0.201 | 0.0335
29 | STXBP2_Q15833_44_ILSSCCK (UniProt Q15833) | 0.214 | -0.507
30 | SRRM2_Q9UQ35_785_SLSGSSPCPK (UniProt Q9UQ35) | -0.479 | -0.673
31 | STK16_O75716_174_DLKPTNILLGDEGQPVLMDLGSMNQACIHVEGSR (UniProt O75716) | -0.00387 | -0.0622
32 | SRSF1_Q07955_16_GPAGNNDCR (UniProt Q07955) | -0.0645 | 0.315
33 | STAG2_Q8N3U4_527_QESALIEIMLCTIR (UniProt Q8N3U4) | -0.207 | -0.2
34 | STAU1_O95793_523_NEFVSLINCSSQPPLISHGIGK (UniProt O95793) | 0.138 | 0.154
35 | STIL_Q15468_970_AVIISHECTR (UniProt Q15468) | -0.157 | -0.195
36 | SSH3_Q8TE77_634_TQAFQEQEQGQGQGQGEPCISSTPR (UniProt Q8TE77) | -0.125 | -0.345
37 | STRBP_Q96SI9_254_SIGTCNRPLGAGEALR (UniProt Q96SI9) | -0.222 | 0.0552
